By UniProt entry, the sequences of proteins in these tests, tags left out.
UniProt P16370: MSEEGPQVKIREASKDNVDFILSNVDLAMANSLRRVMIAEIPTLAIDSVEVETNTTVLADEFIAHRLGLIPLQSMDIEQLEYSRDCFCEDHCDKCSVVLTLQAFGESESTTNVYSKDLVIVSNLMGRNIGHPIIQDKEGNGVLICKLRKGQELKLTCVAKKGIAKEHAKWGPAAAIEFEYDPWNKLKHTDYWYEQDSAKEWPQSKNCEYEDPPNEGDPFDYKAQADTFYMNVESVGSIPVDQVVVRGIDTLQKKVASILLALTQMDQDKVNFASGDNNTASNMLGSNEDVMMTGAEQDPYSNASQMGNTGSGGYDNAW

In PMC8511950:

B1: Leo1 (protein, UniProt P38439 1-464)
chain: MSSESPQDQPQKEQISNNVGVTTNSTSNEETSRSQDDNVKEVNGNDDTKEEEQEEDAELDDLFGDDNDDDDDDDVKKSETEKSDSDSDEDDEGENINHRSRHRESLGLDDDEAEEQAMYTRKFYGEDANNFSDQDETTHTFKEENVELVRHIIPSKANVNETASHNEIFYARIPNFLTIDPIPFDPPSFEAKVNERASNSASREDQLDDRLIDENTVRWRYSRDKDQHVFKESNTQIVQWSDGTYSLKVGEECTDILVNDTSNTFLTVSHDQQELIQCYEGGEIKKTLMFIPTSTNSKIHQKLSKAVIRRNQRQSKGPGTYIVSMDPEVEKKELERKQSQILRDRRRRQLKEKEKQESPDAAFETGFRKQNSPTTYGASRRNEYEEDDFLVDDDEEEEAAFDDEEDDNEEEEEEEDADEENASRLRNLKREGAAMYREEEEEEKDRSETKRRRVAVIEDDEDED
B2: Toa1 (protein, UniProt P32773 1-286)
chain: MSNAEASRVYEIIVESVVNEVREDFENAGIDEQTLQDLKNIWQKKLTETKVTTFSWDNQFNEGNINGVQNDLNFNLATPGVNSSEFNIKEENTGNEGLILPNINSNNNIPHSGETNINTNTVEATNNSGATLNTNTSGNTNADVTSQPKIEVKPEIELTINNANITTVENIDDESEKKDDEEKEEDVEKTRKEKEQIEQVKLQAKKEKRSALLDTDEVGSELDDSDDDYLISEGEEDGPDENLMLCLYDKVTRTKARWKCSLKDGVVTINRNDYTFQKAQVEAEWV
B3: Toa2 (protein, UniProt P32774 1-122)
chain: MAVPGYYELYRRSTIGNSLVDALDTLISDGRIEASLAMRVLETFDKVVAETLKDNTQSKLTVKGNLDTYGFCDDVWTFIVKNCQVTVEDSHRDASQNGSGDSQSVISVDKLRIVACNSKKSE
B4: Wtm1 (protein, UniProt Q12363 1-437)
chain: MPKKVWKSSTPSTYEHISSLRPKFVSRVDNVLHQRKSLTFSNVVVPDKKNNTLTSSVIYSQGSDIYEIDFAVPLQEAASEPVKDYGDAFEGIENTSLSPKFVYQGETVSKMAYLDKTGETTLLSMSKNGSLAWFKEGIKVPIHIVQELMGPATSYASIHSLTRPGDLPEKDFSLAISDFGISNDTETIVKSQSNGDEEDSILKIIDNAGKPGEILRTVHVPGTTVTHTVRFFDNHIFASCSDDNILRFWDTRTSDKPIWVLGEPKNGKLTSFDCSQVSNNLFVTGFSTGIIKLWDARAAEAATTDLTYRQNGEDPIQNEIANFYHAGGDSVVDVQFSATSSSEFFTVGGTGNIYHWNTDYSLSKYNPDDTIAPPQDATEESQTKSLRFLHKGGSRRSPKQIGRRNTAAWHPVIENLVGTVDDDSLVSIYKPYTEESE
B5: Set2 (enzyme, UniProt P46995 1-733)
chain: MSKNQSVSASEDEKEILNNNAEGHKPQRLFDQEPDLTEEALTKFENLDDCIYANKRIGTFKNNDFMECDCYEEFSDGVNHACDEDSDCINRLTLIECVNDLCSSCGNDCQNQRFQKKQYAPIAIFKTKHKGYGVRAEQDIEANQFIYEYKGEVIEEMEFRDRLIDYDQRHFKHFYFMMLQNGEFIDATIKGSLARFCNHSCSPNAYVNKWVVKDKLRMGIFAQRKILKGEEITFDYNVDRYGAQAQKCYCEEPNCIGFLGGKTQTDAASLLPQNIADALGVTVSMEKKWLKLKKLSGEPIIKNENENINIEFLQSLEVQPIDSPVDVTKIMSVLLQQDNKIIASKLLKRLFTIDDDSLRHQAIKLHGYTCFSKMLKLFITEQPQVDGKGNETEEDDIKFIKGILDFLLELPKTTRNGIESSQIDNVVKTLPAKFPFLKPNCDELLEKWSKFETYKRITKKDINVAASKMIDLRRVRLPPGWEIIHENGRPLYYNAEQKTKLHYPPSGSSKVFSSRSNTQVNSPSSSGIPKTPGALDSKKHKLSDEEYERKKQKRLEYERIALERAKQEELESLKQKLKLENERKSVLEDIIAEANKQKELQKEEAKKLVEAKEAKRLKRKTVSQSQRLEHNWNKFFASFVPNLIKKNPQSKQFDHENIKQCAKDIVKILTTKELKKDSSRAPPDDLTKGKRHKVKEFINSYMDKIILKKKQKKALALSSASTRMSSPPPSTSS
B6: His5 (protein, UniProt P07172 1-385)
chain: MVFDLKRIVRPKIYNLEPYRCARDDFTEGILLDANENAHGPTPVELSKTNLHRYPDPHQLEFKTAMTKYRNKTSSYANDPEVKPLTADNLCLGVGSDESIDAIIRACCVPGKEKILVLPPTYSMYSVCANINDIEVVQCPLTVSDGSFQMDTEAVLTILKNDSLIKLMFVTSPGNPTGAKIKTSLIEKVLQNWDNGLVVVDEAYVDFCGGSTAPLVTKYPNLVTLQTLSKSFGLAGIRLGMTYATAELARILNAMKAPYNISSLASEYALKAVQDSNLKKMEATSKIINEEKMRLLKELTALDYVDDQYVGGLDANFLLIRINGGDNVLAKKLYYQLATQSGVVVRFRGNELGCSGCLRITVGTHEENTHLIKYFKETLYKLANE
B7: Tal1 (protein, UniProt P15019 1-335)
chain: MSEPAQKKQKVANNSLEQLKASGTVVVADTGDFGSIAKFQPQDSTTNPSLILAAAKQPTYAKLIDVAVEYGKKHGKTTEEQVENAVDRLLVEFGKEILKIVPGRVSTEVDARLSFDTQATIEKARHIIKLFEQEGVSKERVLIKIASTWEGIQAAKELEEKDGIHCNLTLLFSFVQAVACAEAQVTLISPFVGRILDWYKSSTGKDYKGEADPGVISVKKIYNYYKKYGYKTIVMGASFRSTDEIKNLAGVDYLTISPALLDKLMNSTEPFPRVLDPVSAKKEAGDKISYISDESKFRFDLNEDAMATEKLSEGIRKFSADIVTLFDLIEKKVTA
B8: Ubp14 (protein, UniProt P38237 1-781)
chain: MAEAVLENVNVPAVVSKDECIYCFESPYNEPLALNASPKHSLNICLNCFQATCNRHVPLHIRVTEYACDTIHSNYLTIAKVEKPKQENVEENNNNKKIKLQVIETSEDDTHNTIWSLQRFNGENVPRTVLSKSTDSDISSTALEKIEKILKAKSQDFEDKKNSWVLEISTCPHTENFQIPSKPENTVNLNQCSSCDLTQNLWLCLHCGNIGCGREQIGIDGHSHALDHYRSNNNHPLAIKLGSLSSSTYDLYCYACDDETRFPDNVNLGSALQIYGINIQEKIADEKTLVQLQVEQNENWQFRMVDSSGKEFEKLSASKNYGCGLINLGNSCYLNSVIQSLVNGGVPNWSLDFLGSKFPLDVVYPDNNLKCQWIKLLNAMKCEPELYPNGIKPTTFKKCIGQNHQEFSSNRQQDAMEFLTFLLDLLDKKFFSSSSSGIPNPNDLVRFMMEDRLQCNICGKVKYSYEPTEAIQIPLEENDEPQDMLERIKAYFEGQTIEFKCANCKEKVTANKKPGFKSLPQTLILNPIRIRLQNWIPVKTSNELSLPGLIDRDDMLDVSSYLSQGFDPQTENLLPDEDENRSSFTPNQCSISQLIEMGFTQNASVRALFNTGNQDAESAMNWLFQHMDDPDLNDPFVPPPNVPKKDKREVDEVSLTSMLSMGLNPNLCRKALILNNGDVNRSVEWVFNNMDDDGTFPEPEVPNEEQQQKKDLGYSTAKPYALTAVICHKGNSVHSGHYVVFIRKLVADKWKWVLYNDEKLVAADSIEDMKKNGYIYFYTRC
B9: Iwr1 (protein, UniProt Q07532 1-353)
chain: MSTISTTTAPEFIRVKRRRDEDSVQALLIDEGKRVKKQKFIFKLSKTVSSESYQSEQESSTPLLKLAHEDHRHFVLEQRKKSRRDSDDEKSQQRLAAEGSTVDDDGLPPEINQMVNDYLKLNKGVEKTERKKPSRKYFTGDSAKIASLPSLDYVFDIYHLEKIHDDEVARYNNEKNIGFVKIIEHIDLALDEESDPNEARSDDEDSNDENYYQNDYPEDEDDDRSILFGSEGEDIAALGEEIVIGVNKSRFSSWNDDKIQGSNGYHDVEEEYGDLFNRLGGKSDVLKSINSSNFIDLDGQEGEIEISDNEDDSDEGDDIEYPRNEFFPTDVDDPLAHHRDRIFHQLQKKINRS
B10: Utp25 (protein, UniProt P40498 1-721)
chain: MSDSSVREKNDNFRGYRKRGRQELRKIKRSSARTEGGSTETLEDVAEDIDHRSDEDEVSDVDSGDDFDIEDEEGKKEKVYDALLTILKSEHPEPKRRRREADESNKAPAEVGEDEHENTEHGPVDDQLEIENGLLGNHEDDNDDDSSGDEKDIDSEDEQDPFESHFNQVPEKFVDKLSNAFKTKSVKYKSVKGSLSDSESYIYAKPVVIGEEALVESPYRSSSIYSYFLKQRLKVQNGLLDKKTDPLTALQKKLVDPMFQYKDILYEYDSYEKDEDEYRDLYALHVLNHIYKTRDRILKNNQRLQDNPDTEHLDQGFTRPKVLIVVPTREVAYRVVDKIISKSGIDQVDKKGKFYDQFRDDSLPPKSKPKSFQHIFRGNTNDFFVVGLKFTRKAIKLYSNFYQSDIIVCSPLGIQMILENTDKKKRQDDFLSSIELMVIDQLHSIEYQNISHIFTIFDHLNKIPDQQHEADFSRIRMWYINEQAKLFRQTMVFTKYISPAANSLINGRCRNMAGRWKNHKVIGSENSSIGQSGLKIRQIFQRFDIIGNSIIEEPDYRFKFFTSVIIPGIVKSTGYEDGILIYIPDYTDFIRIRNYMKEKTTILFGDINEYSSQRQLNANRSLFQQGRLKVMLYTERLHHYRRYEIKGVKSVVFYKPPNNPEFYNEVVRFIGKNAFLGNTDLNISTVRCIYSKLDGLSLERIVGTKRAAVLSHAQKEIYEFK

Biological target: Rpb3 with C-terminal BioTAP tag (S. cerevisiae) (UniProt P16370)
Test: affinity purification with mass spectrometry; BioTAP-XL two-step purification of Rpb3-BioTAP (IgG beads, then streptavidin agarose) from 1% formaldehyde-cross-linked wildtype and spt6-1004 cells shifted to 37 °C for 80 min; on-bead trypsin digestion, TMT labelling, MS3 quantification; untagged wildtype and spt6-1004 cells as controls; FDR cutoff 0.05

Binder	binding
B1	binds
B2	binds
B3	binds
B4	binds
B5	binds
B6	binds
B7	binds
B8	binds
B9	binds
B10	binds

No constants are given. Whether binding was seen depends on the method and setting. In cells and extracts the contact can be indirect. Here binding means that the protein was enriched with, or labelled near, the bait; the list need not be complete. Where a sequence is shown, tags or fusion partners need not be part of it.
